These are yes or no findings as the source states them, for the method shown. In cells and extracts the contact can be indirect. A result given as binding can be weak or reduced; the word gives no strength. Sequences can lack the tags named with a protein. Values belong to the molecule of their own block, whether it stands above or below them.
Columns and labels:
[1] = target: T1, Bazooka endogenously tagged with GFP (Baz::GFP) (Drosophila (endogenous in embryos and wing imaginal discs)) (UniProt O96782); assay: co-IP; Baz::GFP embryo extract precipitated with a Baz antibody; Western blot
T1 sequence: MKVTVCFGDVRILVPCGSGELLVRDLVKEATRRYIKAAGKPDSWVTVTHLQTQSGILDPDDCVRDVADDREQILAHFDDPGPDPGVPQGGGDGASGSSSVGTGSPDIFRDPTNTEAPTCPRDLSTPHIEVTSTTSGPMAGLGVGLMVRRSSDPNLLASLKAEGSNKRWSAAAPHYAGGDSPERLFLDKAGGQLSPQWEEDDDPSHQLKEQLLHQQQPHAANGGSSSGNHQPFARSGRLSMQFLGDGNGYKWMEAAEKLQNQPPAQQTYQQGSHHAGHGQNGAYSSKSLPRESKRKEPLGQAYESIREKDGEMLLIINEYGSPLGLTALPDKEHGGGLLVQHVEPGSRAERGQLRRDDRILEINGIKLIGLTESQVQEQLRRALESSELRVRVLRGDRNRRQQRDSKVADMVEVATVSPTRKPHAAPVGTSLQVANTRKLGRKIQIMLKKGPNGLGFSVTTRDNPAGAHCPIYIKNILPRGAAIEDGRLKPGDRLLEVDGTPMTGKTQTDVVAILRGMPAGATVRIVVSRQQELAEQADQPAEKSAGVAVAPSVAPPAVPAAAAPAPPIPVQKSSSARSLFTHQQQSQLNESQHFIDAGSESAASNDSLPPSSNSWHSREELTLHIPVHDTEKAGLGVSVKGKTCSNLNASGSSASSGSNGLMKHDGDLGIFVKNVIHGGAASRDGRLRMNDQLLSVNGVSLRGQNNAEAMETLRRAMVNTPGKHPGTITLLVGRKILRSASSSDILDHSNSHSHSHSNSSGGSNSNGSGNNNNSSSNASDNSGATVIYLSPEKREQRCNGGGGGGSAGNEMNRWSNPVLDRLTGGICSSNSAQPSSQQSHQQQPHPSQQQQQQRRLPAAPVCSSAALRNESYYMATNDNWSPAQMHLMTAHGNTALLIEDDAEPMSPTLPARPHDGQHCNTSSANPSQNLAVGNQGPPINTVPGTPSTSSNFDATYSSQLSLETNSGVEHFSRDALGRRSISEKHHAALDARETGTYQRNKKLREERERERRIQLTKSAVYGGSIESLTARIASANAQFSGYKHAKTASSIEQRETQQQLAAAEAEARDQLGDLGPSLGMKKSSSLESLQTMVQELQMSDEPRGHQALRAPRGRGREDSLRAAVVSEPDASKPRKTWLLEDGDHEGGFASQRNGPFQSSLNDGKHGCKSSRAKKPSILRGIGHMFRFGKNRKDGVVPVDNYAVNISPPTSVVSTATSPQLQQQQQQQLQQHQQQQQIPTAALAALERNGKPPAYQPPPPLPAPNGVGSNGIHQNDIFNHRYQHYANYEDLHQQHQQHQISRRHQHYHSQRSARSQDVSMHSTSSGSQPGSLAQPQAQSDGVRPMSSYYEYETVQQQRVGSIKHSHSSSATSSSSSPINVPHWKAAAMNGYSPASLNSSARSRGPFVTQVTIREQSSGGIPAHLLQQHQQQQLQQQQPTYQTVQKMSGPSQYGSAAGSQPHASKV

[2] = target: Magi (Drosophila melanogaster (endogenous in embryos and wing imaginal discs)); assay: co-IP; Baz::GFP embryo lysate (1% Triton X-100, 150 mM NaCl), precipitated with the Magi polyclonal antibody and protein-A microbeads, washed in 150 mM NaCl, 1% NP-40; Western blot
[3] = target: Magi overexpressed with apterous-GAL4 (Magi::Cherry) (Drosophila); assay: proximity ligation; Duolink PLA on fixed third instar wing imaginal discs; anti-GFP with anti-Magi or anti-aPKC antibodies; controls with one antibody only
[4] = target: Magi (Drosophila melanogaster (endogenous in embryos and wing imaginal discs)); assay: as above

Molecule: Magi
binding [1]: binds

B1: Bazooka endogenously tagged with GFP (Baz::GFP) (protein, UniProt O96782 1-1464)
chain: MKVTVCFGDVRILVPCGSGELLVRDLVKEATRRYIKAAGKPDSWVTVTHLQTQSGILDPDDCVRDVADDREQILAHFDDPGPDPGVPQGGGDGASGSSSVGTGSPDIFRDPTNTEAPTCPRDLSTPHIEVTSTTSGPMAGLGVGLMVRRSSDPNLLASLKAEGSNKRWSAAAPHYAGGDSPERLFLDKAGGQLSPQWEEDDDPSHQLKEQLLHQQQPHAANGGSSSGNHQPFARSGRLSMQFLGDGNGYKWMEAAEKLQNQPPAQQTYQQGSHHAGHGQNGAYSSKSLPRESKRKEPLGQAYESIREKDGEMLLIINEYGSPLGLTALPDKEHGGGLLVQHVEPGSRAERGQLRRDDRILEINGIKLIGLTESQVQEQLRRALESSELRVRVLRGDRNRRQQRDSKVADMVEVATVSPTRKPHAAPVGTSLQVANTRKLGRKIQIMLKKGPNGLGFSVTTRDNPAGAHCPIYIKNILPRGAAIEDGRLKPGDRLLEVDGTPMTGKTQTDVVAILRGMPAGATVRIVVSRQQELAEQADQPAEKSAGVAVAPSVAPPAVPAAAAPAPPIPVQKSSSARSLFTHQQQSQLNESQHFIDAGSESAASNDSLPPSSNSWHSREELTLHIPVHDTEKAGLGVSVKGKTCSNLNASGSSASSGSNGLMKHDGDLGIFVKNVIHGGAASRDGRLRMNDQLLSVNGVSLRGQNNAEAMETLRRAMVNTPGKHPGTITLLVGRKILRSASSSDILDHSNSHSHSHSNSSGGSNSNGSGNNNNSSSNASDNSGATVIYLSPEKREQRCNGGGGGGSAGNEMNRWSNPVLDRLTGGICSSNSAQPSSQQSHQQQPHPSQQQQQQRRLPAAPVCSSAALRNESYYMATNDNWSPAQMHLMTAHGNTALLIEDDAEPMSPTLPARPHDGQHCNTSSANPSQNLAVGNQGPPINTVPGTPSTSSNFDATYSSQLSLETNSGVEHFSRDALGRRSISEKHHAALDARETGTYQRNKKLREERERERRIQLTKSAVYGGSIESLTARIASANAQFSGYKHAKTASSIEQRETQQQLAAAEAEARDQLGDLGPSLGMKKSSSLESLQTMVQELQMSDEPRGHQALRAPRGRGREDSLRAAVVSEPDASKPRKTWLLEDGDHEGGFASQRNGPFQSSLNDGKHGCKSSRAKKPSILRGIGHMFRFGKNRKDGVVPVDNYAVNISPPTSVVSTATSPQLQQQQQQQLQQHQQQQQIPTAALAALERNGKPPAYQPPPPLPAPNGVGSNGIHQNDIFNHRYQHYANYEDLHQQHQQHQISRRHQHYHSQRSARSQDVSMHSTSSGSQPGSLAQPQAQSDGVRPMSSYYEYETVQQQRVGSIKHSHSSSATSSSSSPINVPHWKAAAMNGYSPASLNSSARSRGPFVTQVTIREQSSGGIPAHLLQQHQQQQLQQQQPTYQTVQKMSGPSQYGSAAGSQPHASKV
binding [2]: binds | binding [3]: binds | binding [4]: binds

Next, values leading:

binding [2]: binds
B2: aPKC (enzyme, UniProt A1Z9X0 1-606)
chain: MQKMPSQILNDGSSVSLNSASMNMANTPNSITVKTAYNGQIIITTINKNISYEELCYEIRNICRFPLDQPFTIKWVDEENDPCTISTKMELDEAIRLYEMNFDSQLVIHVFPNVPQAPGLSCDGEDRSIYRRGARRWRKLYRVNGHIFQAKRFNRRAFCAYCQDRIWGLGRQGFKCIQCKLLVHKKCHKLVQKHCTDQPEPLVKERAEESSDPIPVPLPPLPYEAMSGGAEACETHDHAHIVAPPPPEDPLEPGTQRQYSLNDFELIRVIGRGSYAKVLMVELRRTRRIYAMKVIKKALVTDDEDIDWVQTEKHVFETASNHPFLVGLHSCFQTPSRLFFVIEFVRGGDLMYHMQRQRRLPEEHARFYAAEISLALNFLHEKGIIYRDLKLDNVLLDHEGHIKLTDYGMCKEGIRPGDTTSTFCGTPNYIAPEILRGEDYGFSVDWWALGVLLYEMLAGRSPFDLAGASENPDQNTEDYLFQVILEKTIRIPRSLSVRAASVLKGFLNKNPADRLGCHRESAFMDIVSHPFFKNMDWELLERKQVTPPFKPRLDSDRDLANFPPEFTGEAVQLTPDDDHVIDNIDQSEFEGFEYVNPLLMSLEDCV

binding [4]: binds
B3: aPKC::GFP (enzyme, UniProt A1Z9X0 1-606)
chain: MQKMPSQILNDGSSVSLNSASMNMANTPNSITVKTAYNGQIIITTINKNISYEELCYEIRNICRFPLDQPFTIKWVDEENDPCTISTKMELDEAIRLYEMNFDSQLVIHVFPNVPQAPGLSCDGEDRSIYRRGARRWRKLYRVNGHIFQAKRFNRRAFCAYCQDRIWGLGRQGFKCIQCKLLVHKKCHKLVQKHCTDQPEPLVKERAEESSDPIPVPLPPLPYEAMSGGAEACETHDHAHIVAPPPPEDPLEPGTQRQYSLNDFELIRVIGRGSYAKVLMVELRRTRRIYAMKVIKKALVTDDEDIDWVQTEKHVFETASNHPFLVGLHSCFQTPSRLFFVIEFVRGGDLMYHMQRQRRLPEEHARFYAAEISLALNFLHEKGIIYRDLKLDNVLLDHEGHIKLTDYGMCKEGIRPGDTTSTFCGTPNYIAPEILRGEDYGFSVDWWALGVLLYEMLAGRSPFDLAGASENPDQNTEDYLFQVILEKTIRIPRSLSVRAASVLKGFLNKNPADRLGCHRESAFMDIVSHPFFKNMDWELLERKQVTPPFKPRLDSDRDLANFPPEFTGEAVQLTPDDDHVIDNIDQSEFEGFEYVNPLLMSLEDCV

binding [2]: no binding
B4: Discs-large (protein, UniProt P31007 1-970)
chain: MPVKKQEAHRALELLEDYHARLSEPQDRALRIAIERVIRIFKSRLFQALLDIQEFYELTLLDDSKSIQQKTAETLQIATKWEKDGQAVKIADFIKSSNLNRNCAYEFNNDASSNQTNQSALNQNPIANNVSAQAQAEALSRTFKSELEEILNQRMRIESDTENAKEPTVEQQQKQQQAQQRSSRSPQQQNPQQQQGSKSRSGSQTVNGDDSWLYEDIQLERGNSGLGFSIAGGTDNPHIGTDTSIYITKLISGGAAAADGRLSINDIIVSVNDVSVVDVPHASAVDALKKAGNVVKLHVKRKRGTATTPAAGSAAGDARDSAASGPKVIEIDLVKGGKGLGFSIAGGIGNQHIPGDNGIYVTKLMDGGAAQVDGRLSIGDKLIAVRTNGSEKNLENVTHELAVATLKSITDKVTLIIGKTQHLTTSASGGGGGGLSSGQQLSQSQSQLATSQSQSQVHQQQHATPMVNSQSTEPGSRYASTNVLAAVPPGTPRAVSTEDITREPRTITIQKGPQGLGFNIVGGEDGQGIYVSFILAGGPADLGSELKRGDQLLSVNNVNLTHATHEEAAQALKTSGGVVTLLAQYRPEEYNRFEARIQELKQQAALGAGGSGTLLRTTQKRSLYVRALFDYDPNRDDGLPSRGLPFKHGDILHVTNASDDEWWQARRVLGDNEDEQIGIVPSKRRWERKMRARDRSVKFQGHAAANNNLDKQSTLDRKKKNFTFSRKFPFMKSRDEKNEDGSDQEPFMLCYTQDDANAEGASEENVLSYEAVQRLSINYTRPVIILGPLKDRINDDLISEYPDKFGSCVPHTTRPKREYEVDGRDYHFVSSREQMERDIQNHLFIEAGQYNDNLYGTSVASVREVAEKGKHCILDVSGNAIKRLQVAQLYPVAVFIKPKSVDSVMEMNRRMTEEQAKKTYERAIKMEQEFGEYFTGVVQGDTIEEIYSKVKSMIWSQSGPTIWVPSKESL

Reference: paper PMC4830575
